Measured values from the supplement of paper PMC12889115.
The other results are listed elsewhere or left out. Values are raw readings; no control value is given beside them.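 In the initial screen, polymyxin B was used at a concentration that permeabilizes Salmonella's outer membrane but not its inner membrane. Maximum growth was set by DMSO wells with or without polymyxin B. Since plates varied, data were ranked per plate, and compounds giving the lowest OD600 advanced as hits.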

Tested on: Salmonella enterica serovar Typhimurium SL1344
Experiment: bacterial growth OD600 after 18 h with compound and polymyxin B; higher = more bacterial growth (less inhibition)
Settings: 50 µM, Mueller-Hinton broth

Row | Compound | bacterial growth OD600 (polymyxin B 1 µg/mL) | bacterial growth OD600 (polymyxin B 0.75 µg/mL)
1 | O=C1N(Cc2cccc(F)c2F)CCCC1(O)CN1CCN(CC2CCC2)CC1 (stereo unspecified) | 0.92 | –
2 | Cc1cc(O)nc(CNC(=O)C2(N3CCCCC3)Cc3ccccc3C2)n1 | – | 0.757
3 | COc1cccc(CNCc2c(C(=O)N3CCCCCCC3)nc3ccc(Cl)cn23)c1 | 0.006 | –
4 | Cc1nc(N2CCC(NC(Cn3cccn3)c3ccccc3)CC2)nc2ccc(F)cc12 (stereo unspecified) | – | 0.002
5 | O=C1O[C@@H]2CN(c3ncccn3)C[C@@H]2N1C1CCCC1 | – | 0.872
6 | O=C(c1cc(F)c(F)cc1F)N1CCOc2ccc(CN3CCN(c4ccccc4)CC3)cc2C1 | – | 0.799
7 | CC1CN(c2ccc(-c3nc(Cc4ccc(F)cc4)no3)cn2)CCN1C (stereo unspecified) | – | 0.237
8 | Cc1ncsc1C(=O)N1CCC(C2CCN(Cc3cccnc3)CC2)C1 (stereo unspecified) | – | 1.02
9 | COc1ccccc1CC(=O)NCc1cccnc1N1CCCCCCC1 | 0.659 | –
10 | O=C(C#Cc1ccccc1)NC1CCCN(C2Cc3ccccc3C2)C1 (stereo unspecified) | 1.11 | –
11 | COc1cccc(CC(C2CCN(C(=O)COc3ccccc3)CC2)N(C)C(=O)c2ccn(C)n2)c1 (stereo unspecified) | – | 0.84
12 | O=C(NCC1CCCN(Cc2cc3ccccc3o2)C1)c1cc2ccccc2[nH]1 (stereo unspecified) | 0.815 | –
13 | Cc1ccccc1CCC1CCCN(C(=O)CCc2ccncc2)C1 (stereo unspecified) | 0.01 | –
14 | C=CCCC(=O)N1CCCC1C(=O)Nc1ccccc1Oc1cccnc1 (stereo unspecified) | 0.784 | –
15 | CC(C)NCc1cccnc1N1CCN(c2ccccn2)CC1 | 0.978 | –
16 | CC(=O)c1cc(CN2CCN(c3nc(-c4ccccc4)nc4c3CCC4)CC2)cs1 | 0.825 | –

Nos. 14 through 15, reprinted for reference:
Row | Compound | bacterial growth OD600 (polymyxin B 1 µg/mL) | bacterial growth OD600 (polymyxin B 0.75 µg/mL)
14 | C=CCCC(=O)N1CCCC1C(=O)Nc1ccccc1Oc1cccnc1 (stereo unspecified) | 0.784 | –
15 | CC(C)NCc1cccnc1N1CCN(c2ccccn2)CC1 | 0.978 | –

(next part)

Row | Compound | bacterial growth OD600 (polymyxin B 1 µg/mL) | bacterial growth OD600 (polymyxin B 0.75 µg/mL)
17 | O=C1O[C@@H]2CN(Cc3cnn(-c4cccc(F)c4)c3)C[C@@H]2N1C1CCCC1 | – | 0.93
18 | COc1cccc([C@@H](C)NC(=O)CCC2(Cc3cc(OC)ccc3F)CCC(=O)N2)c1 (stereo partly specified) | – | 0.838
19 | CCOc1ccc2nc(N3CCCN(Cc4cccc(O)c4)CC3)nc(C)c2c1 | – | 0.797
20 | Cc1cc(C)c(C(=O)N2CCC(C3CCN(Cc4cccnc4)CC3)C2)[nH]1 (stereo unspecified) | – | 0.848
21 | CC(C)c1cc(C(=O)N2CCCC(C(=O)c3ccc4ccccc4c3)C2)on1 (stereo unspecified) | 0.979 | –
22 | COc1ccc(F)c(CN2CCCC(O)(CNC3CCCCC3)C2=O)c1 (stereo unspecified) | – | 0.962
23 | Cc1oc(-c2ccccc2NS(C)(=O)=O)nc1CN(C)Cc1c(F)cccc1F | – | 0.078
24 | C=CCC(O)(CC=C)C(C)NC(=O)CCC1(CC)CCC(=O)N1 (stereo unspecified) | – | 0.903
25 | COC(=O)c1ccc(CN2CCC(CO)(CCOc3ccccc3)CC2)cc1 | 1.13 | –
26 | COCCn1cc(C(=O)NCC2(c3ccccc3)CCCC2)c(=O)c(C(=O)N2CCCCCC2)c1 | – | 0.773
27 | COc1ccc(CCN2C(=O)O[C@@H]3CN(S(=O)(=O)N4CCCC4)C[C@@H]32)cc1 | 0.928 | –
28 | COC(=O)C1CCCCN1Cc1nc(N2CCCN(C(C)=O)CC2)c2cccc(C)c2n1 (stereo unspecified) | – | 0.892
29 | CCOC(=O)CNC(=O)N1CCC(CCC(=O)Nc2cccc(OC)c2)CC1 | 0.99 | –
30 | CCc1nccn1CCC(=O)NCc1nc(-c2ccc(NC(=O)c3ccc(COC)o3)cc2)oc1C | – | 0.883
31 | COC(C(=O)Nc1ccnn1C1CCN(C2CCCC2)CC1)c1ccccc1 (stereo unspecified) | 1.01 | –
